# doi:10.1101/2024.08.19.608612
# By UniProt entry, the sequences of proteins in these tests, tags left out.
# UniProt Q9HC16: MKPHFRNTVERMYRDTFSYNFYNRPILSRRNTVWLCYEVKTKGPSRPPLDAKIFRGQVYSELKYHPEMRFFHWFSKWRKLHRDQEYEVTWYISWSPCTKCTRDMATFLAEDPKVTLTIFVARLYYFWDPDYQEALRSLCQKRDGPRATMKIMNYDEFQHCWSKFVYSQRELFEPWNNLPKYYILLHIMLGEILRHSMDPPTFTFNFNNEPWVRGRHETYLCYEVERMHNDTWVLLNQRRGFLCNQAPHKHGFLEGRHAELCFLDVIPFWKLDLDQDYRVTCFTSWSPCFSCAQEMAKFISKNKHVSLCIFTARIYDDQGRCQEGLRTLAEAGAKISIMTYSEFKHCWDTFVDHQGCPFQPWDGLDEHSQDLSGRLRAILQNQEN
# UniProt O35286: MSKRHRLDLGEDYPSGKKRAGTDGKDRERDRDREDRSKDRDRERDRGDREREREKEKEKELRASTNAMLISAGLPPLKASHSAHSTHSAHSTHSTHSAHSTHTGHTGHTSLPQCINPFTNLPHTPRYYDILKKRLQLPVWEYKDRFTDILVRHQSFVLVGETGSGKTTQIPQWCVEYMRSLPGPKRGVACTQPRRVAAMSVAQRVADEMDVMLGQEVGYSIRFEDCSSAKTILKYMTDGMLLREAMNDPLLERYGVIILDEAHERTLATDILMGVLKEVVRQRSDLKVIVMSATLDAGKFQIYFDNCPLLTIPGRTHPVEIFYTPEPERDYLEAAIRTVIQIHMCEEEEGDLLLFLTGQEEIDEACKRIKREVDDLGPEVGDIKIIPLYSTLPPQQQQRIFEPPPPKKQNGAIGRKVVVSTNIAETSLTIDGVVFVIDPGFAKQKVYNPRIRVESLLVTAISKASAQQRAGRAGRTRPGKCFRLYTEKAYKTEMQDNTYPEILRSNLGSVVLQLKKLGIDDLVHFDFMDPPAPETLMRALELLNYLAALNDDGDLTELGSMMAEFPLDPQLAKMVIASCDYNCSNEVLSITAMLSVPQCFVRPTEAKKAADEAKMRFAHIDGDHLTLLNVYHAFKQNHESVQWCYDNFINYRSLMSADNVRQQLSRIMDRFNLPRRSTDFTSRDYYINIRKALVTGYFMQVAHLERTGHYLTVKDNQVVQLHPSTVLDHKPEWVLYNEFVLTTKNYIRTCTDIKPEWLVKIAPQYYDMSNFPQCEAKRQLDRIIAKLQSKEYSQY
# UniProt O43143: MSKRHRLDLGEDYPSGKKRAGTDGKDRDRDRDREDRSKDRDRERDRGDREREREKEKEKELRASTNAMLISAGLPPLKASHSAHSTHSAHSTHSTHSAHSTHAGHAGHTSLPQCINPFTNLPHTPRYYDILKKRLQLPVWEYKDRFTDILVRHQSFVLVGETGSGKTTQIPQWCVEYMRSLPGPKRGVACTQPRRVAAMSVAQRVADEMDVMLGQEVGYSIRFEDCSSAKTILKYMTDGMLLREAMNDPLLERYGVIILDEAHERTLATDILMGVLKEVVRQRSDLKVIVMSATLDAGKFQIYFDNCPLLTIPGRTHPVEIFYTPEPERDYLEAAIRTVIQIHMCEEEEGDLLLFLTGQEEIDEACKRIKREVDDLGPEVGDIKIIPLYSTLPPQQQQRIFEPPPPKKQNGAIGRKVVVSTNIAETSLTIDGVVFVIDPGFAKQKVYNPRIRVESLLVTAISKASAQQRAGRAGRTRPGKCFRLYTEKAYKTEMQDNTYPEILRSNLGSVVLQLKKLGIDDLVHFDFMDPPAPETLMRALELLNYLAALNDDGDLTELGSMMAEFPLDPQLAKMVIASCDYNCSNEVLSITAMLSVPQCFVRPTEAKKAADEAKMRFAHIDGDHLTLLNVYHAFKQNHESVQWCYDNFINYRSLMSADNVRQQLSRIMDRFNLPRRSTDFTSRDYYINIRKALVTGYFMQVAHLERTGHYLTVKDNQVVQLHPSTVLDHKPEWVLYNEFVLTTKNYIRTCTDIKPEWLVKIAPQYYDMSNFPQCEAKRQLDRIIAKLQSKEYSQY
# UniProt P67809: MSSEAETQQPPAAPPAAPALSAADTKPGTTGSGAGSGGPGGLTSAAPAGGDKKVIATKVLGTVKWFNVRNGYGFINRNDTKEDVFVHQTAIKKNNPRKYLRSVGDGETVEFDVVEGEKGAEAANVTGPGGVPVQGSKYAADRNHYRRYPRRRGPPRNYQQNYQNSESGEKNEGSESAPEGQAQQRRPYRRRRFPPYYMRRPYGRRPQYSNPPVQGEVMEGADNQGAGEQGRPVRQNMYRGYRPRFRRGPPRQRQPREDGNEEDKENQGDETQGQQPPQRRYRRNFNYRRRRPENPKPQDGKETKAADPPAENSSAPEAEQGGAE
# Read-outs that look alike come from different tables or passages of the source. These are yes or no findings as the source states them, for the method shown. In cells and extracts the contact can be indirect. Some binding calls cover weakened binding; strength is not graded here. For some of these results: Where a sequence is shown, tags or fusion partners need not be part of it.
# B1: mouse APOBEC3, endogenous in MutuDC1940 (muDC) cells (protein, UniProt Q99J72 1-440)
# chain: MQPQRLGPRAGMGPFCLGCSHRKCYSPIRNLISQETFKFHFKNLGYAKGRKDTFLCYEVTRKDCDSPVSLHHGVFKNKDNIHAEICFLYWFHDKVLKVLSPREEFKITWYMSWSPCFECAEQIVRFLATHHNLSLDIFSSRLYNVQDPETQQNLCRLVQEGAQVAAMDLYEFKKCWKKFVDNGGRRFRPWKRLLTNFRYQDSKLQEILRPCYISVPSSSSSTLSNICLTKGLPETRFWVEGRRMDPLSEEEFYSQFYNQRVKHLCYYHRMKPYLCYQLEQFNGQAPLKGCLLSEKGKQHAEILFLDKIRSMELSQVTITCYLTWSPCPNCAWQLAAFKRDRPDLILHIYTSRLYFHWKRPFQKGLCSLWQSGILVDVMDLPQFTDCWTNFVNPKRPFWPWKGLEIISRRTQRRLRRIKESWGLQDLVNDFGNLQLGPPMS
# Key:
# Experiment in all cases: co-IP
# [1] = target: T1, FLAG-tagged mouse APOBEC3 (pcDNA-FLAG-mA3) (mouse) (UniProt Q99J72)
# T1 sequence: B1 chain
# [2] = target: T1, FLAG-tagged mouse APOBEC3 (pcDNA-FLAG-mA3) (mouse); remark: listed apart in the source
# [3] = target: T2, mouse APOBEC3, endogenous in MutuDC1940 (muDC) cells (mouse (endogenous in MutuDC1940)) (UniProt Q99J72)
# T2 sequence: B1 chain
# [4] = target: FLAG-tagged human APOBEC3G (human) (UniProt Q9HC16)
# [5] = target: DHX15, endogenous in MutuDC1940 (muDC) cells (mouse (endogenous in MutuDC1940)) (UniProt O35286)
molecule,measurement,setting,value
"DEAH-box helicase 15 (DHX15), endogenous in 293T cells (from UniProt O43143 1-795)",binding,[1],binds
same,binding,[2],binds
"DHX15 in the mAPOBEC3 domain-mapping co-IPs (""the DHX15 vector"") (from UniProt O43143 1-795)",binding,[2],binds
"DHX15, endogenous in MutuDC1940 (muDC) cells (from UniProt O35286 1-795)",binding,[3],binds
"Y-box binding protein 1 (YB1), endogenous in 293T cells (from UniProt P67809 1-324)",binding,[4],binds
same,binding,[2],binds
B1,binding,[5],binds
